## Percent effect of library compounds

By UniProt entry, the sequences of proteins in these tests, tags left out.
UniProt P9WPC5, whole entry: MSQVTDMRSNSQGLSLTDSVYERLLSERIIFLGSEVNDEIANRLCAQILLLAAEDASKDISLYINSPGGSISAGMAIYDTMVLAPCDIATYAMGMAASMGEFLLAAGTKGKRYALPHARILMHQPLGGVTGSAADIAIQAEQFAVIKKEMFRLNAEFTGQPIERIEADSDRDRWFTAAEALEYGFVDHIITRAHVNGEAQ
UniProt P9WPC3, whole entry partner: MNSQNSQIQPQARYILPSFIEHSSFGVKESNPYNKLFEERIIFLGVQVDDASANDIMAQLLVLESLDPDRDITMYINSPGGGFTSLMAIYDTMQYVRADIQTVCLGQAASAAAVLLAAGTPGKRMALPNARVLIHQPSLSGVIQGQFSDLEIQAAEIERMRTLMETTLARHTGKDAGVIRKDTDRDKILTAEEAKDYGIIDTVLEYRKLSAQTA
UniProt P9WNZ1, whole entry: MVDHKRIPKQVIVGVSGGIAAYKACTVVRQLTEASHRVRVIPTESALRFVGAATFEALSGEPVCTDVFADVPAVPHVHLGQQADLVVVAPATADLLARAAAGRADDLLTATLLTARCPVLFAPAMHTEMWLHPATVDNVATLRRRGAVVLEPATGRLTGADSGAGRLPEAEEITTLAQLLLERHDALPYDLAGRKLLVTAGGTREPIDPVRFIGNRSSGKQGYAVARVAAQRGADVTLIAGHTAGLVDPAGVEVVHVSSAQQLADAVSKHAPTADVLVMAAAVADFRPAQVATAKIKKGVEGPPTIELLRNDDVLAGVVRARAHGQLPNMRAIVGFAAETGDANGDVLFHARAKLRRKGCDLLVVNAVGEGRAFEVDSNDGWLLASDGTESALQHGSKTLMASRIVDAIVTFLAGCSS

The values are deposited in ChEMBL (CHEMBL3988442, “University of Dundee, Small-Polar-MMV Screening Library” (2021)).

The filed quantity is “Percent Effect” (%).
The record does not define 0% and 100%; most values in the screen are far below 50% and negative numbers occur (in some assays of this library far below -100).
This is an unselected part of the compounds tested.
A dash means the value is not listed here; it may have been measured.

Toxoplasma: 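Assay of Toxoplasma gondii numbers, read through their beta-galactosidase reporter with a colour substrate. Compounds at 10 µM. The record gives no direction; the compounds picked for IC50 retests had high values, so higher reads as fewer parasites. Of about 67,000 compounds tested this way, about 260 (0.38%) reached 50% or more in at least one test.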
ClpP1P2: 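Protease assay of ClpP1P2, read by the AMC dye that it sets free. Target: ClpP1P2, Mycobacterium tuberculosis (UniProt P9WPC5 and UniProt P9WPC3). Concentration: 50 µM. Direction is inferred from only a few compounds that gave an IC50; most scored high, so higher reads as stronger inhibition. Most other retested compounds had strongly negative values. About 69,000 compounds were tested under these conditions; 0.015% (about 10) showed 50% or more at least once.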
T. brucei: 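Whole-parasite assay of Trypanosoma brucei over 72 hours; the read-out is not stated. Tested at 30 µM. The record gives no direction; compounds that gave an IC50 in retests scored well above the rest, so higher reads as stronger inhibition. Values scatter widely below zero; nearly all retest evidence comes from the higher of the two concentrations used. Of about 64,000 compounds tested this way, about 940 (1.5%) reached 50% or more in at least one test.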
CoaBC: 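Enzyme assay of CoaBC with a phosphate dye (Biomol Green) read at 650 nm. Target: Coenzyme A biosynthesis protein CoaBC, Mycobacterium tuberculosis (UniProt P9WNZ1). Concentration: 30 µM. Higher reads as stronger inhibition, judged from the few compounds that gave an IC50. Most strong results did not repeat in a second test. About 67,000 compounds were tested under these conditions; 0.06% (about 40) showed 50% or more at least once.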

| # | structure | Toxoplasma | ClpP1P2 | T. brucei | CoaBC |
|---|---|---|---|---|---|
| 1 | `Cc1nn(C(C)(C)C)c(=O)n1CC(=O)NCC(F)(F)F` | 3.58 | 1.01 | -41.41 | 5 |
| 2 | `COc1ncc(-c2c(C#N)c(N)nc3c2CCc2[nH]ccc2-3)cn1` | -2.572 | -24.83 | -6.46 | 0.4274 |
| 3 | `CC(C)N1CCC(c2nccnc2Nc2cnccn2)CC1` | - | -2.58 | - | 4.988 |
| 4 | `CCS(=O)(=O)c1ncc(CN(C)Cc2cccc(OC)c2)n1CCOC` | 9.084 | -17.05 | -33.25 | 1.568 |
| 5 | `O=C(c1ccc[nH]1)N1CC2(CCN(c3nccs3)C2)C1` | -8.217 | 3.461 | - | 1.25 |
| 6 | `Cn1nc(Cn2cccc2)c2c1CN(Cc1ccsc1)C2.O=C(O)C(F)(F)F` | -4.519 | - | 0.2793 | - |
| 7 | `CCC(=O)N1CCC2(CC1)CN(C(C)=O)c1ccc(C)cc12` | -1.26 | 0.4035 | -15.87 | 4.684 |
| 8 | `O=C(O)C(F)(F)F.O=C(O)C(F)(F)F.c1ccc(CN2CCc3ncnc(C4CC4)c3CC2)nc1` | -9.684 | - | 1.797 | - |
| 9 | `Cc1ccccc1CN1CCN(Cc2nccn2C)CC1` | -3.159 | 6.487 | -27.8 | 2.728 |
| 10 | `Nc1nc2c(c(N3CCCC(CN4CCCC4=O)C3)n1)CCNCC2` (stereo unspecified) | 0.4409 | -9.293 | -52.24 | - |
| 11 | `CS(=O)(=O)c1ccc(CNC(=O)N2CCC(c3ccccc3)CC2)cc1` | - | -10.24 | -20.62 | 2.057 |
| 12 | `O=C(O)C(F)(F)F.O=C(O)C(F)(F)F.[H][C@]12C[C@H](C(=O)NC)N(C(C)=O)[C@@]1([H])CN(Cc1cccnc1OC)C2` | -4.147 | - | -40.46 | - |
| 13 | `[H][C@]12C[C@H](NC(=O)c3ccnn3C)[C@@]1([H])CN(S(=O)(=O)c1ccc(C)cc1)C2` | 4.933 | - | 14.63 | - |
| 14 | `Cc1cc(C(=O)N2CCN(c3nc4c(C(C)C)cccc4s3)CC2)no1` | 14.68 | 1.074 | -24.13 | 7.022 |
| 15 | `CCCN1CCC(NC(=O)NCCc2nc(CC)c(C)s2)CC1` | -3.914 | -1.614 | 19.04 | 7.66 |
| 16 | `CCOc1ccc(C2SCC(=O)Nc3c2c(=O)[nH]n3C(CC)CC)cc1` (stereo unspecified) | 5.203 | -2.076 | - | -3.947 |
| 17 | `Cc1noc(C)c1CN1CC[C@H]2[C@H]1CCN2CC1CCOCC1` | - | 5.496 | - | 0.9756 |
| 18 | `CCCN1CCN(C(=O)c2cnccn2)[C@H]2CS(=O)(=O)C[C@H]21` | - | -12.62 | - | 3.625 |
| 19 | `Cn1cc(CCCNC(=O)NCC(O)c2ccsc2)cn1` (stereo unspecified) | -11.57 | -4.291 | -26.96 | -4.176 |
| 20 | `c1ncn(Cc2nnc(C3CCN(C4CCOCC4)CC3)n2C2CC2)n1` | -8.099 | 6.278 | -22.2 | -2.784 |
| 21 | `CN(Cc1cnn(C)c1)C(=O)c1ccc(Cl)c(N2CCNC2=O)c1` | -6.247 | -8.999 | -7.101 | -0.8861 |
| 22 | `c1csc(N2CCN(c3ncnc4sccc34)CC2)n1` | 15.87 | 17.91 | -14.99 | 1.294 |
| 23 | `O=C1NC[C@]2(CC[C@@H](C(=O)N3CCC(O)CC3)CC2)Oc2ccccc21` | 4 | -7.902 | -12.95 | -2.349 |
| 24 | `Cn1ncc2c1C(COCC1CC1)CN(Cc1ccoc1)C2` (stereo unspecified) | 2.959 | 2.76 | - | 10.03 |
| 25 | `O=C1CC(c2cccnc2)C2(CCN(S(=O)(=O)C3CC3)CC2)N1` (stereo unspecified) | - | 0.1649 | - | 5.656 |
| 26 | `Cc1noc(C)c1CCC(=O)NC(C)c1nnc2n1CCC2` (stereo unspecified) | 5.263 | 6.915 | -24.25 | 11.89 |
| 27 | `Cc1ccc(CN2CCc3ncnc(-c4ccncc4)c3CC2)o1.O=C(O)C(F)(F)F.O=C(O)C(F)(F)F` | -3.936 | - | -37.96 | - |
| 28 | `Cn1cc(S(=O)(=O)N2CCCC(Cn3cncn3)C2)cn1` (stereo unspecified) | -17.34 | -8.459 | 10.47 | 1.195 |
| 29 | `[H][C@@]12CCN(C(=O)CCc3ccc(OCC)cc3)C[C@]1([H])OCCNC2=O` | -3.347 | - | -14.99 | - |
| 30 | `Cc1cnc(N2CCC3(CCN(CC4CCCC4)C3=O)CC2)nc1` | - | -2.982 | - | 3.294 |
| 31 | `CC(C)c1nc2n(n1)CC(NCc1nc(C3CC3)no1)CC2` (stereo unspecified) | -2.084 | -20.19 | -24.24 | 3.609 |
| 32 | `CC(C)c1noc(C(C)N2CCN(Cc3noc(C(C)(C)C)n3)CC2)n1` (stereo unspecified) | 1.97 | -7.334 | - | -9.92 |
| 33 | `CC(C)c1cc(C(=O)N2CCC3(CCc4ccccc4C(=O)N3)C2)on1` (stereo unspecified) | 3.13 | -13.82 | 8.994 | 4.306 |
| 34 | `CC(=O)NCC(=O)N1CCC2(CC1)NC(=O)CC2c1cnn(C)c1` (stereo unspecified) | 11.7 | -10 | -7.09 | -3.083 |
| 35 | `O=C(c1ccc2ccccc2c1)C1CCCN(C(=O)Cn2cncn2)C1` (stereo unspecified) | -2.684 | -0.8884 | -31.84 | -3.478 |
| 36 | `CCOCC(O)CN1CCN(C(=O)c2ccc(OC)cc2)CC1` (stereo unspecified) | 11.83 | -15.11 | - | 1.434 |
| 37 | `Cc1cc(C(F)(F)F)cc(N2C[C@@H](CN3CCOCC3)[C@@H](CO)C2)n1` | -13.96 | -7.98 | -9.203 | 4.177 |
| 38 | `[H][C@@]12CN(S(C)(=O)=O)C[C@]1(C(=O)NC)CCC21CCN(C(C)=O)CC1` | 0.2658 | - | -13.35 | - |
| 39 | `CCOc1cc(C(=O)N2CCCC(c3noc(C(C)C)n3)C2)ccn1` (stereo unspecified) | 0.6865 | -44.42 | -16.09 | 7.791 |
| 40 | `CN(CCN1CCN(c2ccccc2)CC1)C(=O)Nc1ccccn1` | -1.77 | -7.352 | -36.74 | 2.244 |
| 41 | `c1ccc(OCc2nc(CNCCn3cccn3)cs2)cc1` | 2.467 | -9.879 | -9.773 | -0.3367 |
| 42 | `CCOc1ccc2cc(C(=O)NCCC(=O)N(C)C)[nH]c2c1` | 12.78 | -13.22 | -38.08 | 10.39 |
| 43 | `O=C(O)CC(O)(CC(=O)O)C(=O)O.[H][C@]12CC[C@](O)(c3ccccn3)[C@@]1([H])CN(Cc1cccc3ncccc13)C2` | -3.395 | - | -10.05 | - |
| 44 | `Cc1ncnc(NCC(C)N(C)c2ccccc2)c1C` (stereo unspecified) | 4.553 | -1.57 | -34.62 | 10.49 |
| 45 | `[H][C@@]12COC[C@]1(CNS(C)(=O)=O)CN(C(=O)c1ccoc1)C2` | -1.774 | - | 8.66 | - |
| 46 | `CCc1cc(C)nc(N2CCN(C(C)c3nc(C)no3)CC2)n1` (stereo unspecified) | -14.04 | -5.345 | -14.81 | - |
| 47 | `CCc1nc(C2CCCN2CC(=O)N2CCCc3ccccc32)no1` (stereo unspecified) | -1.117 | -19.86 | -13.73 | 8.929 |
| 48 | `O=C(c1ccnnc1)N1C[C@@H]2CC[C@H](Oc3cccc(F)c3)[C@@H]2C1` | - | -5.7 | - | 2.5 |
| 49 | `c1cncc(CN(Cc2ccc(-n3ccnc3)cc2)CC2CCCO2)c1` (stereo unspecified) | -9.832 | 11.38 | -15.87 | 3.418 |
| 50 | `Cc1cc(C2CCCN2CCCc2nc3ccccc3o2)on1` (stereo unspecified) | -4.078 | -3.583 | -39.97 | 3.203 |
| 51 | `Cc1ccc(C(C)(C)CNC(=O)NC(C)Cn2cncn2)cc1` (stereo unspecified) | 1.361 | -0.9597 | -0.2831 | 5.785 |
| 52 | `c1cncc(N2CCCC3(CCN(CCN4CCCC4)CC3)C2)c1` | - | -3.657 | - | -4.069 |
| 53 | `CC(c1cccnc1)N(C)Cc1ccccn1` (stereo unspecified) | 10.84 | -9.718 | -25.27 | 5.584 |
| 54 | `O=C(O)C(F)(F)F.O=C(O)C(F)(F)F.[H][C@@]12CCCO[C@]1([H])[C@@H](OCc1cccnc1)CN2c1nnc(C)s1` | -2.405 | - | -13.28 | - |
| 55 | `Cc1ncsc1CCC(=O)NC1CCN(c2ncccc2C#N)CC1` | -22.33 | -75.73 | - | 1.366 |
| 56 | `CC(C#N)NS(=O)(=O)c1cccc(C(C)C)c1` (stereo unspecified) | -7.513 | -4.889 | -4.364 | -0.3686 |
| 57 | `Cn1ncc2cnn(CC(O)COCc3ccccc3Cl)c2c1=O` (stereo unspecified) | 1.337 | 1.001 | 16.43 | 3.733 |
| 58 | `CCN1CC2(CC1=O)CN(Cc1ccco1)CCN(C(=O)N(C)C)C2` (stereo unspecified) | - | -4.913 | - | -4.086 |
| 59 | `COCCCc1nc(-c2ccc(S(=O)(=O)N3CCCC3)cc2)cs1` | -3.192 | 3.968 | 9.873 | -0.4032 |

6 of the entries, repeated:

structure,Toxoplasma,ClpP1P2,T. brucei,CoaBC
Cc1noc(C)c1CN1CC[C@H]2[C@H]1CCN2CC1CCOCC1,-,5.496,-,0.9756
CC(C#N)NS(=O)(=O)c1cccc(C(C)C)c1 (stereo unspecified),-7.513,-4.889,-4.364,-0.3686
CC(=O)NCC(=O)N1CCC2(CC1)NC(=O)CC2c1cnn(C)c1 (stereo unspecified),11.7,-10,-7.09,-3.083
O=C1CC(c2cccnc2)C2(CCN(S(=O)(=O)C3CC3)CC2)N1 (stereo unspecified),-,0.1649,-,5.656
c1ncn(Cc2nnc(C3CCN(C4CCOCC4)CC3)n2C2CC2)n1,-8.099,6.278,-22.2,-2.784
COc1ncc(-c2c(C#N)c(N)nc3c2CCc2[nH]ccc2-3)cn1,-2.572,-24.83,-6.46,0.4274